In all, about 390,000 compounds went through this assay and about 910 (0.23%) were called active. The shares of active, inactive and inconclusive entries below differ from those in the screen. The call rests on the fitted dose curve; in most records, active means well fitted inhibition curve with a large enough effect; inconclusive means small, poorly fitted or top-dose-only effect; inactive means no such curve, though single readings can be large or run the other way. Potencies beside an inconclusive call are fits to weak or partial responses and may not hold up.
Molecular target: Ubiquitin carboxyl-terminal hydrolase 1 (Homo sapiens) (UniProt O94782)
Test: Inhibitors of USP1/UAF1: Primary Screen; further: nearly all actives have a fitted effect of over 60% in size
Conditions: recombinant USP1/UAF1, Ub-Rhodamine cleavage fluorescence; series mostly up to 57.1 µM
Method in brief: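 High-throughput fluorogenic screen: 1nM USP1/UAF1 complex, Ub-Rho substrate 150nM final, 50mM HEPES pH 7.8 with 0.5mM EDTA, 0.1 mg/ml BSA, 1mM TCEP and 0.01% Tween-20.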
Potency means the concentration at half of the fitted maximal effect.

Chains of the proteins cited; added tags and fusions are not shown. Lines headed by an entry give the natural chain unless they say otherwise; changes in a name come on top.
UniProt O94782: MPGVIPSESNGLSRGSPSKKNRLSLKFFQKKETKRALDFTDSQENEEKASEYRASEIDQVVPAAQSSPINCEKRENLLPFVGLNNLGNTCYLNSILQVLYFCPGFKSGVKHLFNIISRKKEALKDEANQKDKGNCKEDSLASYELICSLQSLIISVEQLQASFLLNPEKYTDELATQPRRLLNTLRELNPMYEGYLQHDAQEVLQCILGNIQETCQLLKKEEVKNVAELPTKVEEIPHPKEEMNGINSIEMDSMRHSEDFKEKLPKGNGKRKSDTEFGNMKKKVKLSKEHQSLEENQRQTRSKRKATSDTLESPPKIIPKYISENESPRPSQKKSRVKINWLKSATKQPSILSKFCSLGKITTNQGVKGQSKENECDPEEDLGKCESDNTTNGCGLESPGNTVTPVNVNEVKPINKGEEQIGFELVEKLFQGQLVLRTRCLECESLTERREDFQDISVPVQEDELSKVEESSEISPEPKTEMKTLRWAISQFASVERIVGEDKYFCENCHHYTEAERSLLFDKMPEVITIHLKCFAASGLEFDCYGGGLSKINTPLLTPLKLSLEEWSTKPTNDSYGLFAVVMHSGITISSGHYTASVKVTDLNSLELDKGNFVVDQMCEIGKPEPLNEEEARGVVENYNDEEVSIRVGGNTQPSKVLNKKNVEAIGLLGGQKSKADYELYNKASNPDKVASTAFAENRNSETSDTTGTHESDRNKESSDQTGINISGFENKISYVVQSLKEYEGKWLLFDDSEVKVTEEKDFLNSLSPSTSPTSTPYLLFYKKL

SMILES | Potency
CCOC(=O)c1c(C)oc2c1c1c(c3ccccc32)OCN(Cc2ccccn2)C1 | inactive
COc1ccc(-c2noc(CC(=O)Nc3cc(OC)ccc3OC)n2)cc1 | inconclusive: 0.0891 µM [inhibitor, full curve, poor fit]
O=C(CN1CCCCC1)Nc1cc(Cl)ccc1Cl | inactive
CCCS(=O)(=O)c1nc(S(=O)(=O)c2ccc(C)cc2)c(N2CCC3(CC2)OCCO3)s1 | inconclusive: 56.2 µM [inhibitor, partial curve, poor fit]
CCCCN(C(=O)c1ccc(N2CCCC2=O)cc1)c1c(N)n(Cc2ccccc2)c(=O)[nH]c1=O | inconclusive: 0.251 µM [inhibitor, full curve]
O=C(Cn1cc(S(=O)(=O)Cc2ccccc2Cl)c2ccccc21)NCCc1ccccc1 | inconclusive: 44.7 µM [inhibitor, partial curve, poor fit]
O=C(CN1C(=O)c2ccccc2S1(=O)=O)Nc1ncc(Cl)cc1Cl | inconclusive: 44.7 µM [inhibitor, partial curve, poor fit]
CCOC(=O)Cn1nc(C)c(NC(=O)COc2ccc([N+](=O)[O-])cc2)c1C | inconclusive: 25.1 µM [inhibitor, single point]
Cc1ccc(C)c(N2CCN(S(=O)(=O)c3ccc(C(=O)N(C)C)s3)CC2)c1 | inactive
Cc1ccc(SCCC(=O)N/N=C/c2ccncc2)cc1 | inconclusive: 15.8 µM [inhibitor, partial curve]
COc1ccc(CCNCc2c(C(=O)O)c(C)n(Cc3cccc(Cl)c3)c2C)c(OC)c1OC | inconclusive: 5.62 µM [inhibitor, partial curve]
COc1ccc(Cl)cc1NC(=O)c1cc(S(=O)(=O)N(C)Cc2ccccc2)ccc1F | inconclusive: 0.501 µM [inhibitor, full curve, poor fit]
Cc1ccc(C)c(N2CCN(C(=O)CCc3nc(-c4ccc(Cl)cc4)no3)CC2)c1 | inconclusive: 31.6 µM [inhibitor, partial curve]
CS(=O)(=O)N(Cc1ccccc1)c1ccc(C(=O)Nc2ccc(Cl)cc2)cc1 | inactive
CN(C)CCC1CCN(c2cc(C#N)c(C#N)cc2[N+](=O)[O-])CC1 | inconclusive: 5.01 µM [inhibitor, full curve, poor fit]
c1ccc(CN2CCN(CCOCCOc3cccc4ccccc34)CC2)cc1 | inactive
CCc1cccc(C)c1NC(=O)CSc1nc2c(c(=O)[nH]1)CCC2 | inconclusive: 63.1 µM [inhibitor, single point]
C[C@@H]1CN([C@@H](C)CO)C(=O)CCCn2nncc2CO[C@@H]1CN(C)S(=O)(=O)c1ccc(Cl)cc1 | inconclusive: 0.251 µM [inhibitor, full curve, poor fit]
Cc1cc(-c2ccccc2)nc(N2CCN(c3ccccn3)CC2)n1 | inconclusive: 35.5 µM [inhibitor, partial curve]
CC1CCN(C(C(=O)Nc2ccc3c(c2)OCO3)c2ccccc2)CC1 (stereo not given) | inactive
CC1CCCN(C(=O)CN2C(=O)CSc3ccc(S(=O)(=O)N4CCOCC4)cc32)C1 (stereo not given) | inactive
CCCCN(C)S(=O)(=O)c1ccc(C(=O)Nc2ccc(-c3nc4ccc(C)cc4s3)cc2)cc1 | inconclusive: 6.31 µM [inhibitor, full curve, poor fit]

SMILES | Potency
O=C(OCCN1C(=O)c2cccc3c(N4CCOCC4)ccc(c23)C1=O)c1cccc(Cl)c1 | inconclusive: 31.6 µM [inhibitor, partial curve, poor fit]
COc1ccc(C(Nc2ccccn2)c2oc(CO)cc(=O)c2O)cc1 (stereo not given) | inactive
O=C(NC1CCCC1)C(c1ccco1)N(C(=O)c1csnn1)c1ccccc1 (stereo not given) | inconclusive: 0.794 µM [inhibitor, full curve, poor fit]
Cc1c(Cl)cccc1NC(=O)C1CCN(c2nc3ccccc3[nH]2)CC1 | inconclusive: 28.2 µM [inhibitor, partial curve]
CCN1C=C(Cc2cccs2)C2=C(C1)C(c1cccs1)C(C#N)=C(N)O2 (stereo not given) | inconclusive: 39.8 µM [inhibitor, partial curve]
O=C(Cn1cnc2ccccc2c1=O)Nc1ccc(N2CCOCC2)cc1 | inconclusive: 6.31 µM [inhibitor, single point]
COc1cc(C2Nc3ccccc3-c3nnc(SCc4ccc(C)cc4)nc3O2)cc(OC)c1O (stereo not given) | inactive
C/C(=N\NC(=O)C1CC1)c1ccccc1Br | inactive
CN1CCN(c2ccc(NC(=O)COc3ccc4ccccc4c3)cc2)CC1 | inactive
Cc1ccc(N(CC(=O)NC(C)(C)C)C(=O)CNC(=O)c2cccs2)cc1C | inconclusive: 1.41 µM [inhibitor, partial curve]
Cc1ccccc1C(=O)NCCNC(=O)c1ccco1 | inactive
CC(=O)OCC(=O)C1(O)CCC2C3CCC4=CC(=O)C=CC4(C)C3C(=O)CC21C (stereo not given) | inconclusive: 0.0891 µM [inhibitor, full curve, poor fit]
CCOC(=O)c1cc2c(=O)n3ccccc3nc2n(CC2CCCO2)c1=NC(=O)/C=C/c1ccccc1 (stereo not given) | inconclusive: 7.94 µM [inhibitor, single point]
Cc1cccc(C(C)C)c1NC(=O)c1ccc2c(c1)CCN2S(C)(=O)=O | inactive
Fc1cc(Br)ccc1Nc1nc2ccccc2n2nnnc12 | inconclusive: 1.58 µM [inhibitor, partial curve, poor fit]
CCOc1ccccc1OCc1nn2c(-c3ccc(C)cc3)nnc2s1 | inconclusive: 39.8 µM [inhibitor, partial curve, poor fit]
O=C1N/C(=C\c2ccc(O)cc2)C(=O)c2ccccc21 | active: 28.2 µM
Cc1nc(S/C(=C\c2ccc(-c3ccc(C(=O)O)c(Cl)c3)o2)C(=O)O)n[nH]1 | inconclusive: 31.6 µM [inhibitor, single point]
O=C(CSc1nnnn1-c1ccc2c(c1)OCCO2)Nc1nc2c(s1)CCCC2 | inconclusive: 1.78 µM [inhibitor, partial curve]
CC1CCc2c(c3ccccc3n2C(=O)CCl)C1 (stereo not given) | inconclusive: 39.8 µM [inhibitor, partial curve]
COc1ccc(S(=O)(=O)NCC(c2ccc(N(C)C)cc2)N2CCc3ccccc32)cc1F (stereo not given) | inconclusive: 11.2 µM [inhibitor, partial curve]
CCN(CC)c1ccc(N)cc1 | inactive

Quoted from the entries so far for reference:
SMILES | Potency
COc1ccc(-c2noc(CC(=O)Nc3cc(OC)ccc3OC)n2)cc1 | inconclusive: 0.0891 µM [inhibitor, full curve, poor fit]
O=C(CN1CCCCC1)Nc1cc(Cl)ccc1Cl | inactive
CCCS(=O)(=O)c1nc(S(=O)(=O)c2ccc(C)cc2)c(N2CCC3(CC2)OCCO3)s1 | inconclusive: 56.2 µM [inhibitor, partial curve, poor fit]
CCCCN(C(=O)c1ccc(N2CCCC2=O)cc1)c1c(N)n(Cc2ccccc2)c(=O)[nH]c1=O | inconclusive: 0.251 µM [inhibitor, full curve]

(more compounds)

SMILES | Potency
COc1cc(O)cc2cc3c(c(O)c12)C(=O)CC(C)(O)O3 (stereo not given) | inconclusive: 35.5 µM [inhibitor, partial curve, poor fit]
Cc1ccc(C(=O)C(C)OC(=O)c2nc(Cl)ccc2Cl)cc1 (stereo not given) | inactive
O=C(Nc1ccc(N2CCCCC2)cc1)c1ccc(F)cc1 | inactive
CCOC(=O)C1(CCOC)CCN(Cc2cnc(-c3cccc(C)c3)nc2)CC1 | inconclusive: 6.31 µM [inhibitor, single point]
CCOC(=O)Cc1c(C(=O)OCC)nnc2c(-c3ccccc3)c(C)nn12 | inactive
CCOC(=O)c1cccc(NC(=O)N2CC=C(c3c[nH]c4ccccc34)CC2)c1 | inconclusive: 31.6 µM [inhibitor, single point]
COc1cc(OC)cc(C(=O)NCC(=O)OCC(=O)Nc2cc(S(C)(=O)=O)ccc2Cl)c1 | inconclusive: 0.112 µM [inhibitor, full curve, poor fit]
C#CCOCCOCCOCCNc1nc(N2CCN(C(=O)CCCCCCCCCCNC(=O)[C@H](CCCCN)n3cc(CCO)nn3)CC2)nc(N2CCN(C(=O)CCCCCCCCCCNC(=O)[C@H](CCCN=C(N)N)n3cc(C[C@@H](C)CC)nn3)CC2)n1 | inconclusive: 50.1 µM [inhibitor, partial curve, poor fit]
COc1ccc(-c2oc(=O)c3cc(OC)c(OC)cc3c2C#CC2(O)CCCCC2)cc1 | inconclusive: 50.1 µM [inhibitor, partial curve, poor fit]
COc1ccc(OC(=O)CN2C(=O)C3C4CCC(C4)C3C2=O)cc1 (stereo not given) | inactive
COc1ccccc1NC(=O)C1CCCN(c2ncnc3onc(-c4ccc(F)cc4)c23)C1 (stereo not given) | inactive
COc1ccc(-c2cc3nc(C)c(CCC(=O)NC(C)c4ccccc4)c(C)n3n2)c(OC)c1 (stereo not given) | inconclusive: 17.8 µM [inhibitor, partial curve, poor fit]
O=C(Nc1ccccc1C(=O)O)c1cc(S(=O)(=O)NCc2ccccc2)ccc1Cl | inconclusive: 56.2 µM [inhibitor, partial curve, poor fit]
Cc1nc(N2CCN(c3ccccn3)CC2)c2c(C)c(C(=O)Nc3ccc(F)cc3F)sc2n1 | inactive
O=C(Nc1ccccc1C(F)(F)F)N1CC=C(c2c[nH]c3ccccc23)CC1 | inconclusive: 89.1 µM [inhibitor, partial curve, poor fit]
O=C(O)c1cc(-c2ccc(-c3ccc(F)cc3)o2)nc2ccccc12 | inconclusive: 70.8 µM [inhibitor, partial curve, poor fit]
COCCNCC#CCOc1ccc(OC)cc1 | inconclusive: 44.7 µM [inhibitor, single point]
CC(=O)Nc1ccc(-c2csc(Nc3ncccn3)n2)cc1 | inactive
Cc1cc(C)cc(SCc2noc(C(=O)NCC3CC3)c2C(=O)NCC2CC2)c1 | inconclusive: 44.7 µM [inhibitor, partial curve, poor fit]
CCOC(=O)SC1=N/C(=C\c2ccc(N(C)C)cc2)C(=O)S1 | inconclusive: 28.2 µM [inhibitor, partial curve]
Cc1cc(-c2ccccc2)c2c(=O)n(-c3ccccc3)[nH]c2n1 | inconclusive: 2.24 µM [inhibitor, full curve, poor fit]

— PubChem BioAssay AID743255 (National Center for Advancing Translational Sciences (NCATS), 2014)
